Experimental data reported in patent US20190225644A1, “MRNA CAP ANALOGS AND METHODS OF MRNA CAPPING” (ModernaTX, Inc., priority 2015, published 2019).
For at least one compound, name, drawing or mass did not settle the structure.

Amino acid sequences for entries named in this document (tags omitted). A change or cut given only in a name is not applied to a line headed by its entry.
UniProt P00573: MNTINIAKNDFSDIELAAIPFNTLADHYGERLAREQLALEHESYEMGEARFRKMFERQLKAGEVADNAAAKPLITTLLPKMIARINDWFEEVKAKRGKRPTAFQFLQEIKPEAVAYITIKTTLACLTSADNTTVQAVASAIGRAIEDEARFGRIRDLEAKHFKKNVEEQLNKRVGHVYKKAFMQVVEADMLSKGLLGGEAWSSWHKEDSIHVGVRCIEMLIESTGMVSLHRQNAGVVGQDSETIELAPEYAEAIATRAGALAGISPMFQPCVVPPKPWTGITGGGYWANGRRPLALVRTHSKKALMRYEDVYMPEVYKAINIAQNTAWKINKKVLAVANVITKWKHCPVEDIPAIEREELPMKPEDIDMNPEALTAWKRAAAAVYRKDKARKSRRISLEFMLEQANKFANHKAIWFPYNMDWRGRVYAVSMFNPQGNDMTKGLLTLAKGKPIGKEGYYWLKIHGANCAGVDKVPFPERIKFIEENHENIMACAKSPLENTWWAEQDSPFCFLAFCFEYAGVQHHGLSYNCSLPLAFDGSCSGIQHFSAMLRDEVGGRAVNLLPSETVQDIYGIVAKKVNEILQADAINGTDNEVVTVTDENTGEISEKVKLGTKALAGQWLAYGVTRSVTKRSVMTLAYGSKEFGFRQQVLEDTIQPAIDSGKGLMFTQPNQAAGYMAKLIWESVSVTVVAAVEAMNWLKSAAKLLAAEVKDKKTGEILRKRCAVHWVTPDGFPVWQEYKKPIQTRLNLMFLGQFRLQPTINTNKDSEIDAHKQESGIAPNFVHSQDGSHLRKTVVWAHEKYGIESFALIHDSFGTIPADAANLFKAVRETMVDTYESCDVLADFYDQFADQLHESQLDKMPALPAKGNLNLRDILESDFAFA

Molecular target: T7 RNA Polymerase (Escherichia phage T7, UniProt P00573)
Test: Cotranscriptional capping of hEPO mRNA by in vitro transcription (capping fraction)
Format: biochemical
Details: hEPO mRNA used in the in vivo assay

SMILES | capping %/100
Nc1nc2c(ncn2[C@@H]2O[C@H](COP(=O)(O)OP(=O)(O)OP(=O)(O)OC[C@@H]3CN(Cc4ccccc4)C[C@H](n4c[n+](CCOc5ccc(Cl)cc5)c5c(=O)[nH]c(N)nc54)O3)[C@@H](O)[C@H]2O)c(=O)[nH]1 [Compound 006-29] | 0.94 %/100
C[C@@]1(O)[C@H](O)[C@@H](COP(=O)(O)OP(=O)(O)OP(=O)(O)OC[C@H]2O[C@@H](n3cnc4c(=O)[nH]c(N)nc43)[C@H](O)[C@@H]2O)O[C@H]1n1c[n+](CCOc2ccc(Cl)cc2)c2c(=O)[nH]c(N)nc21 [Compound 007-37] | 0.97 %/100
